Experimental data as given in PubChem BioAssay AID540276 (National Center for Advancing Translational Sciences (NCATS), 2011).
About 5,400 (1.8%) of roughly 300,000 compounds were called active. This list was built around the results that the source calls inconclusive (neither active nor inactive); the mix of calls is not that of the screen. The call rests on the fitted dose curve; tested in HEK293 cells. Where the call is inconclusive, the potency comes from a doubtful curve fit.

assay: qHTS for inhibitors of binding or entry into cells for Marburg Virus; details: Marburg virus pseudotyped entry inhibition, cell reporter; series mostly up to 37.8 µM
Potency means the concentration at half of the fitted maximal effect.

Structure (SMILES)	Potency
CC(C)CCNC(=O)c1ccc(Cl)c(NC(=O)Cc2ccccc2)c1	inactive
CCOC(=O)c1cnc(-c2ccccc2)nc1N(C)C	inconclusive: 4.11 µM [activator, single point]
COC(=O)c1c(NC(=O)Cc2ccccc2)sc2c1C(C(=O)OC)CC2 (stereo not drawn)	inconclusive: 11.2 µM [inhibitor, partial curve]
Cc1cc(C)c(COCc2cc(/C=N/O)c(C)cc2C)cc1/C=N/O	inconclusive: 16.4 µM [inhibitor, single point]
O=C(NCCC(=O)N1CCCC(C(F)(F)F)C1)c1ccccc1Cl (stereo not drawn)	inconclusive: 0.1 µM [activator, full curve, poor fit]
Cc1ccc(NC(=O)c2cc(S(=O)(=O)NCCC3=CCCCC3)ccc2F)cc1F	inconclusive: 1.58 µM [inhibitor, full curve, poor fit]
O=C(NNC(=O)C1C2CCC(C2)C1C(=O)O)c1ccc(Br)o1 (stereo not drawn)	inactive
Cc1c(C(c2ccc(C(=O)O)cc2)c2c(C)n(C)n(-c3ccccc3)c2=O)c(=O)n(-c2ccccc2)n1C	inactive
Cc1[nH]c2ccccc2c1C(=O)C(=O)N1c2ccccc2CC1C (stereo not drawn)	inconclusive: 12.6 µM [inhibitor, partial curve, poor fit]
Cc1ccc(N2CCN(c3ccc(C)cc3)C2c2ccncc2)cc1	inconclusive: 1.41 µM [activator, partial curve, poor fit]
CC(C)c1ccc(NC(=O)CSc2nnc(CN3CCOCC3)n2C)cc1	inconclusive: 0.562 µM [activator, full curve, poor fit]
CC(C)CCNC(=O)c1cccc(Nc2nc3ccccc3n3nnnc23)c1	inactive
CSC1=NCCN1C(=O)Cc1ccc(F)cc1	inactive
COc1ccc(N2C(=O)CC(N3CCOCC3)C2=O)cc1 (stereo not drawn)	inactive
CN(CCNC(=O)c1cn(C)c2ccc(S(=O)(=O)N3CCCC3)cc2c1=O)CCc1ccccc1	inconclusive: 20.6 µM [inhibitor, single point]
CCc1ccccc1NS(=O)(=O)c1ccc2[nH]cc(C(=O)N3CCCCC3)c(=O)c2c1	inactive
C=C1c2c(Cl)ccc(O)c2C(O)=C2C(=O)[C@@]3(O)C(O)=C(C(N)=O)C(=O)[C@@H](N(C)C)[C@@H]3[C@@H](O)[C@H]12	inactive
Nc1ccn([C@@H]2O[C@H](CO)[C@@H](O)C2O)c(=O)n1 (stereo partly drawn)	inconclusive: 5.8 µM [inhibitor, full curve, poor fit]
CCC(C(=O)Nc1ccc(C(=O)OC)cc1)n1c(=O)c(-c2ccccc2NC(C)=O)nc2ccccc21 (stereo not drawn)	inactive
CCOC(=O)c1cccc(NC(=O)c2oc3c(c2C)-c2[nH]ncc2CC3)c1	inconclusive: 17.8 µM [inhibitor, partial curve, poor fit]
COc1ccc(C(C(=O)NCC2CCCO2)N(C(=O)CNC(=O)c2ccco2)c2cc(C)ccc2C)cc1OC (stereo not drawn)	inactive
CCOC(=O)N1CCN(c2ncnc3scc(-c4ccccc4)c23)CC1	inconclusive: 11.2 µM [inhibitor, partial curve, poor fit]

Structure (SMILES)	Potency
Cc1nc2c(-c3ccccc3)c(C)nn2c(C)c1CCC(=O)NC(C)c1ccccc1 (stereo not drawn)	inconclusive: 0.562 µM [activator, full curve, poor fit]
Cc1cc(NS(=O)(=O)c2ccc(NC(=O)c3cc(-c4ccccc4Cl)nc4ccccc34)cc2)no1	inactive
CC1=CC[C@@H](COc2ccccc2)O[C@@]2(C1)C(=O)Nc1ccccc12	inconclusive: 0.0106 µM [activator, full curve, poor fit]
COc1cc2c(cc1OC)CN(C(=O)/C=C/c1ccccc1[N+](=O)[O-])CC2	inconclusive: 6.31 µM [inhibitor, full curve, poor fit]
NC(=O)c1ccccc1NS(=O)(=O)Cc1ccc(Cl)cc1	inconclusive: 23.1 µM [activator, partial curve, poor fit]
O=C(CCN1CCN(C(c2ccccc2)c2ccccc2)CC1)N/N=C/c1ccc(O)cc1O	inconclusive: 13 µM [inhibitor, partial curve, poor fit]
O=C(NCc1ccc(F)cc1)c1cc(-c2cccs2)on1	inactive
COC(=O)c1cc2n(n1)CCN(Cc1ccccc1F)C2=O	inactive
COc1ccc(COc2ccccc2C(=O)NCc2ccccc2)cc1F	inconclusive: 11.2 µM [inhibitor, partial curve, poor fit]
O=C(c1cc(Br)ccc1Cl)N1CCN(c2ccc(N3CCOCC3)nn2)CC1	inconclusive: 10 µM [inhibitor, partial curve, poor fit]
Cc1cccc(N2CCN(C(=O)CCN3C(=S)NC(C)(C)CC3C)CC2)c1C (stereo not drawn)	inconclusive: 10 µM [inhibitor, single point]
O=S(=O)(c1ccc(NC(=S)N2CCN(c3ccc(O)cc3)CC2)cc1)N1CCOCC1	inactive
CC1=C(C(=O)O)N2C(=O)C(NC(=O)c3c(F)cccc3F)C2SC1 (stereo not drawn)	inactive
Cc1ccc(CC2CC(=O)N(c3nc4ccccc4n3C)C2=O)cc1 (stereo not drawn)	inconclusive: 35.5 µM [activator, single point]
O=C(Nc1ccn(Cc2cccc3ccccc23)n1)c1cccnc1	inconclusive: 6.31 µM [inhibitor, partial curve, poor fit]
O=S(=O)(NCCCCCNS(=O)(=O)c1ccc(F)cc1)c1ccc(F)cc1	inconclusive: 12.6 µM [inhibitor, partial curve, poor fit]
O=C(CN1CCC(n2nnc3cc(F)ccc32)CC1)N1CCc2ccccc2C1	inconclusive: 8.2 µM [inhibitor, partial curve, poor fit]
CCN(CC)CC(C)CNC(=O)CN1C(=O)CSc2ccc(S(=O)(=O)N3CCOCC3)cc21 (stereo not drawn)	inactive
Cc1ccc(-n2ncc3c(NCCCOC(C)C)ncnc32)c(C)c1	inactive
CCOC(=O)C1C(c2ccc(C)o2)NC(=O)NC1(O)C(F)(F)F (stereo not drawn)	inconclusive: 31.6 µM [activator, single point]
CN(CCc1ccccc1)Cc1ccccc1[N+](=O)[O-]	inactive
